From patent US8513380B2, “Peptides for binding fibrinogen and fibrin” (Georgia Tech Research Corporation, priority 2009, dated 2013)
Not every detail of the peptide structures is certain; ends, links or a residue may be inferred. Where a SMILES comes first, the peptide text is derived from it.

Biological target: T1, fibrinogen fragment D (Homo sapiens, UniProt P02675+P02679)
T1 construct: Fibrinogen fragment D, comprising the C-terminal polymerization pockets of fibrinogen (i.e. D-domain) without the N-terminal knobs; purchased Enzyme Research Laboratories FIB3
T1 sequence (P02679 89-432 limits assumed): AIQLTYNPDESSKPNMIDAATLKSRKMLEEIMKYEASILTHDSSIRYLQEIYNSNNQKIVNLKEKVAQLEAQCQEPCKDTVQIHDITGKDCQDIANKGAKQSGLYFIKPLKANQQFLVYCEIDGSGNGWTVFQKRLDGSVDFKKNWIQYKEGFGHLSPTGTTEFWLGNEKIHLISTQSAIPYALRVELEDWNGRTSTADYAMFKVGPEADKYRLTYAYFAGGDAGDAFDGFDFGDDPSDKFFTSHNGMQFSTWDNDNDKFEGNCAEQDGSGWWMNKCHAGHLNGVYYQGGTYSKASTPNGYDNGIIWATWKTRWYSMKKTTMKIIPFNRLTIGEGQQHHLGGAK
T1 sequence (P02675 164-491 limits assumed): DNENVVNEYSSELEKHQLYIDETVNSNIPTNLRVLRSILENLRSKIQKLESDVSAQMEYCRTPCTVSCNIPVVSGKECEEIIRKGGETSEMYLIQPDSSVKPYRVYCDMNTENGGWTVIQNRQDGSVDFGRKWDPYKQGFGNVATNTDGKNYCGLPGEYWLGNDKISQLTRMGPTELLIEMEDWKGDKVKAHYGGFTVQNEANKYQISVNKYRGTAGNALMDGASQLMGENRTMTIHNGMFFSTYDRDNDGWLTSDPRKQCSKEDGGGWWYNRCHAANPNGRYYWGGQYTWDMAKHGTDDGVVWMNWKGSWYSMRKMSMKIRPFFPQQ
T1 sequence (P02671 124-216 partner limits assumed): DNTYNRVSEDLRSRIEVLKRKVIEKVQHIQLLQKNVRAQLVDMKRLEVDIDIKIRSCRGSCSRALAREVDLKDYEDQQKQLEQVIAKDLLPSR
Test: SPR binding kinetics of knob 'A' peptides on immobilized fibrinogen fragment D
Description: Human fibrinogen (Enzyme Research Laboratories, South Bend, Ind.) at 2 mg/mL was digested with 0.1 U/mL human plasmin (ERL) in HEPES+CaCl2 buffer (150 mM NaCl, 5 mM CaCl2, 25 mM HEPES; pH 7.4) overnight at room temperature. Fragment D was isolated as previously described, with slight modifications (Kostelansky M S, et al. Biochemistry. 2002; 41(40):12124-12132). Briefly, the plasmin-digested fibrinogen and GPRPAA (SEQ ID NO:10) beads were incubated for 30 min, with occasional agitation. The unbound proteins and protein fragments were removed with excessive washing with HEPES+CaCl2 buffer. Fragment D was eluted with 1M sodium bromide and 50 mM sodium acetate (pH 5.3). Eluted samples were pooled together and exchanged back into HEPES+CaCl2 buffer using a centrifugal filter (MWCO 10,000). Fragment D was verified by SDS-PAGE and stored at −80° C. until use.
The Biacore 2000 (Biacore Lifesciences, GE Healthcare, Pittsburgh, Pa.) was used investigate kinetic binding constants (ka and kd) of knob ‘A’ peptide variants for fibrinogen fragment D. Briefly, fragment D was covalently immobilized to gold-coated SPR sensor chips via self-assembled monolayer (SAM) surface chemistry in order to generate a non-fouling surface with a controlled density of reactive carboxylic acid groups. Mixed SAMs were generated on gold-coated chips as described previously (Petrie T A, et al. Biomaterials. 2006; 27(31):5459-5470) by incubating with a 1 mM mixture of tri(ethylene glycol)-terminated alkanethiols (HS-(CH2)11—(OCH2CH2)3—OH; EG3; ProChimia, Poland) and carboxylic acid-terminated alkanethiols (HS-(CH2)11—(OCH2CH2)6—OCH2COOH; EG6-COOH) for 4 hrs. Upon loading the sensor chip into the Biacore 2000, the EG6-COOH in all four flow cells was activated by flowing 200 mM 1-ethyl-3-(3-dimethylaminopropyl) carbodiimide (EDC; Sigma Aldrich, St. Louis, Mo.) and 50 mM N-hydroxysuccinimide (NHS; Sigma Aldrich) (5 μL/min for 10 min). Immediately following activation, fragment D was immobilized in three flow cells (5 μL/min for 10 min) to achieve 1800-2000 resonance units (RU; 1RU˜1 pg/mm^2). Unreacted NHS groups were quenched in all four flow cells (three sample cells and one reference cell) with 20 mM ethanolamine ([…] for 10 min). Upon stabilization of the baseline signal, kinetic binding experiments were run in duplicate with the peptide variants as the flow analytes. Five varying concentrations for each peptide (0.94 μM to 150 μM) were flowed at 25 μL/min for 4 min immediately followed by a 10 min dissociation phase. Between each run, the surface was regenerated with 1M sodium bromide and 50 mM sodium acetate (pH 6.0). SPR experiments were performed three times with varying peptide injection order to rule out binding trends associated with injection sequence. Peptide solutions were incubated with tris(2-carboxyethyl)phosphine (TCEP) immobilized on agarose beads (Thermo Fisher Scientific, Inc; Rockland, Ill.) to ensure reduction of any disulfide bonds between C-terminal cysteines.
SPR sensorgrams were analyzed with the aid of Scrubber 2 and ClampXP software (Center for Biomolecular Interactions Analysis, University of Utah) (Morton T A, et al. Methods Enzymol. 1998; 295:268-294; Morton T A, et al. Anal Biochem. 1995; 227(1):176-185; Myszka D G, et al. Trends Biochem Sci. 1998; 23(4):149-150). Prior to analysis, all sensorgrams were inspected for abnormalities (i.e. baseline drift, air spikes, or irregular deviations) and excluded. Reference cell responses were subtracted from corresponding active response curves. Double-referenced curves were acquired by further subtracting the reference cell blank buffer injections from each reference-subtracted response curve (Myszka D G. Mol. Recognit. 1999; 12(5):279-284). All double-referenced curves were normalized by the molecular weight of each peptide and multiplied by 1000 to account for minor variations in response due to molecular weight. The resulting curves were then analyzed and fitted to the kinetic models. […]

[1] = heterogeneous ligand model, site 1
[2] = heterogeneous ligand model, site 1, as printed in text
[3] = heterogeneous ligand model, site 2
[4] = heterogeneous ligand model, site 2, as printed in text

How did the “Bmax, maximal binding capacity of fragment D” value (Langmuir 1:1 model) turn out when `C[C@H](NC(=O)[C@@H]1CCCN1C(=O)[C@H](Cc1ccccc1)NC(=O)[C@@H]1CCCN1C(=O)[C@H](CCCNC(=N)N)NC(=O)[C@@H]1CCCN1C(=O)CN)C(=O)N[C@@H](CS)C(=O)O` [GPRPFPAC] (H-GPRPFPAC-OH) was run?
The value was 17.74 ± 0.08 RU.

And the “RSS, residual sum of squares” value (Langmuir 1:1 model)?
The value was 2.092.

And the “RSS, residual sum of squares” value (heterogeneous ligand model)?
The value was 0.9887.

And the “Bmax, maximal binding capacity of fragment D” value [1]?
Its value is 17.59 ± 0.13 RU.

What about the ka1 [1] of the same compound?
The ka1 was 21.72 ± 0.73 (M^−1s^−1) × 10^−3.

What about the kd1 [1] of the same compound?
Its kd1 is 81.10 ± 2.23 (s−1) × 10^3.

And the ka1 [2]?
Its ka1 is 21720 M⁻¹ s⁻¹.

What about the kd1 [2] of the same compound?
The kd1 was 0.0811 s⁻¹.

What about the “B*max” value [3] of the same compound?
Its value is 11.34 ± 0.08 RU.

What about the ka2 [3] of the same compound?
The ka2 was 1.81 ± 0.04 (M^−1s^−1) × 10^−3.

What about the kd2 [3] of the same compound?
The kd2 was 1.96 ± 0.04 (s^−1) × 10^3.

And the ka2 [4]?
Its ka2 is 1810 M⁻¹ s⁻¹.

What about the kd2 [4] of the same compound?
The kd2 was 0.00196 s⁻¹.
